Results as given in patent US20140134179A1.
These are yes or no findings as the source states them, for the method shown. Some results given as binding are weak or reduced against the parent protein; the word gives no strength.

Chains of the proteins cited; added tags and fusions are not shown. Lines headed by an entry give the natural chain unless they say otherwise; changes in a name come on top.
UniProt Q9H6X2: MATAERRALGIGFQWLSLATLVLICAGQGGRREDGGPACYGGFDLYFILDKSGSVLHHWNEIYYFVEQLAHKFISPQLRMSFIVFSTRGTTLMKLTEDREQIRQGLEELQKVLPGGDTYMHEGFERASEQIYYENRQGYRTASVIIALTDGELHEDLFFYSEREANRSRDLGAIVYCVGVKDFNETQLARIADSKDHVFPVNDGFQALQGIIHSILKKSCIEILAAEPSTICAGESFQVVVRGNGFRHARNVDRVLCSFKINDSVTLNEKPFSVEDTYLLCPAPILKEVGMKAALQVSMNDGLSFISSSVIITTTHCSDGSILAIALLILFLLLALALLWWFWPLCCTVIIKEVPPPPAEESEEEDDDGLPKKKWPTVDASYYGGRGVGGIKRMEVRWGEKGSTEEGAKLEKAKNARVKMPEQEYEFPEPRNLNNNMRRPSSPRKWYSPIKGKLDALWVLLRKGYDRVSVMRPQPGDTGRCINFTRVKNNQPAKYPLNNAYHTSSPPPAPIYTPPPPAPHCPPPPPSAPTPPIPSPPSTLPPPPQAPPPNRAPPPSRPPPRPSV

What was measured:
[1] = biological target: flag-tagged human TEM8 on 293 cells (293/Flag-hTEM8) (human) (UniProt Q9H6X2); assay: same screens as for the Fabs (FIG. 2A-D)
[2] = biological target: flag-tagged human TEM8 on 293 cells (293/Flag-hTEM8) (human) (UniProt Q9H6X2); assay: flow cytometry on 293/Flag-hTEM8 cells, FITC anti-mouse secondary (FIG. 9B)
[3] = biological target: flag-tagged human TEM8 on 293 cells (293/Flag-hTEM8) (human) (UniProt Q9H6X2); assay: screens of Example 4 (flow cytometry on TEM8 transfectants)
[4] = biological target: human TEM8 on CHO cells (CHO-TEM8) (human) (UniProt Q9H6X2); assay: flow cytometry on CHO-TEM8 cells (FIG. 2B)

Measured: binding

B1: L5-mIgG2a (antibody, V domains shown)
VH: QVQLVESGGGLVQPGGSLRLSCAASGFTFNSYGLSWVRQAPGKGLEWVSNISSNGSYTYYADSVKGRFTISRDNSKNTLYLQMNSLRAEDTAVYYCARAGYGLFDVWGQGTLVTVSS
VL: DIELTQPPSVSVAPGQTARISCSGDKLREYYVHWYQQKPGQAPVLVIYGDNKRPSGIPERFSGSNSGNTATLTISGTQAEDEADYYCSSWAGSRSGTVFGGGTKLTVL
binds: all assays above
